In the supplement of paper PMC10849652:
Some of the results follow.

By UniProt entry, the sequences of proteins in these tests, tags left out. Where a name states a change or a piece, a line headed by the entry shows the natural chain unless it says otherwise.
UniProt Q6DD88: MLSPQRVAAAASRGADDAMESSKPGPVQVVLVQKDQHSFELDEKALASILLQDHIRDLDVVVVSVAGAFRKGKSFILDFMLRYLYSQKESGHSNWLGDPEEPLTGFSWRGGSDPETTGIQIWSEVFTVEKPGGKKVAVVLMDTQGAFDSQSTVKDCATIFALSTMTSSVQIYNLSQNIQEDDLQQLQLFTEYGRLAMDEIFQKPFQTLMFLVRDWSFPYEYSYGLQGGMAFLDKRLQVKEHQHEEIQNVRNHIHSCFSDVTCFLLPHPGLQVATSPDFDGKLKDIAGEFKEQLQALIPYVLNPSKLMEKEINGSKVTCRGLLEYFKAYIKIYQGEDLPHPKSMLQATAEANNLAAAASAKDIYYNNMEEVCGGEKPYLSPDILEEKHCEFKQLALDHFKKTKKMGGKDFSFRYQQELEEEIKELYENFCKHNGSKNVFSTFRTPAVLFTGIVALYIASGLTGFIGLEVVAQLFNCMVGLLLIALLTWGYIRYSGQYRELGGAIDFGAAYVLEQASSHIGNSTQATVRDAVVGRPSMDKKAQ
UniProt P35670: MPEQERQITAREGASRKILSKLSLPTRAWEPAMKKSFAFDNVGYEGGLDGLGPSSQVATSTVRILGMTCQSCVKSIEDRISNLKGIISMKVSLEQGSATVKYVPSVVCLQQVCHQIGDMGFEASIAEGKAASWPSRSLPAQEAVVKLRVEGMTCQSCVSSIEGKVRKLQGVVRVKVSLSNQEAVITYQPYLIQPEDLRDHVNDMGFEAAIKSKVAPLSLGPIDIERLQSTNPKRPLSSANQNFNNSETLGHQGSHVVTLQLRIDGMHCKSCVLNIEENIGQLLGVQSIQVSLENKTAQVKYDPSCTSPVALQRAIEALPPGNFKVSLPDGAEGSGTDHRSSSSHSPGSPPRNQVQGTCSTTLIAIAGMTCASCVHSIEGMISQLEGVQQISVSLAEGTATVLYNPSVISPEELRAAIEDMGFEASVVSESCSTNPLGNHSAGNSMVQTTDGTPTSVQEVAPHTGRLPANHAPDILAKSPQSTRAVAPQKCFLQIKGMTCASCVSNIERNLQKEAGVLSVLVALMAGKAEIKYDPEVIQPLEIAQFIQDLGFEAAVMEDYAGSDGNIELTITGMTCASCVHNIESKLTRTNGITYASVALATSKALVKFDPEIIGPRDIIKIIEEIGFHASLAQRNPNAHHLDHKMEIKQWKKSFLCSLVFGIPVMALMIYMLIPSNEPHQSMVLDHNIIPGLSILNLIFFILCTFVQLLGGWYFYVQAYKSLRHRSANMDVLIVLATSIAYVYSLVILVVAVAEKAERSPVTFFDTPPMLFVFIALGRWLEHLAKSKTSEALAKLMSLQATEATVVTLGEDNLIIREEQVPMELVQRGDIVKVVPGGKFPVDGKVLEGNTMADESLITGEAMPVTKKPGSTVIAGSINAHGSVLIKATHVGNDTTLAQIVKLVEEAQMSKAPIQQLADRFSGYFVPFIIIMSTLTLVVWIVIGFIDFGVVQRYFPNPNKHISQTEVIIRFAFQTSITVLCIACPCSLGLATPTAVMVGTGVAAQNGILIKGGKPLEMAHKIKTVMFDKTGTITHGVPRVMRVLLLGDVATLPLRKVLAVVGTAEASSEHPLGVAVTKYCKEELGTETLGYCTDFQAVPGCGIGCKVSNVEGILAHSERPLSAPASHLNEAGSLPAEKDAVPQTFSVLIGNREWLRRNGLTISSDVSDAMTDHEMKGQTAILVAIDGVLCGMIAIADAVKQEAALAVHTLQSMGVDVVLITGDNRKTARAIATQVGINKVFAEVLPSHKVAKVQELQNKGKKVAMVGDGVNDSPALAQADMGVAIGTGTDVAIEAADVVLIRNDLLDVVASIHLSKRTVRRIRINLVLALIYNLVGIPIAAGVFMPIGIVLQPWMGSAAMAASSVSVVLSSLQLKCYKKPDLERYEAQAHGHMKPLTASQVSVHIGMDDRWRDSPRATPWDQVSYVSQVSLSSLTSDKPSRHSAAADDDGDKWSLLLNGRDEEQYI
UniProt O94766: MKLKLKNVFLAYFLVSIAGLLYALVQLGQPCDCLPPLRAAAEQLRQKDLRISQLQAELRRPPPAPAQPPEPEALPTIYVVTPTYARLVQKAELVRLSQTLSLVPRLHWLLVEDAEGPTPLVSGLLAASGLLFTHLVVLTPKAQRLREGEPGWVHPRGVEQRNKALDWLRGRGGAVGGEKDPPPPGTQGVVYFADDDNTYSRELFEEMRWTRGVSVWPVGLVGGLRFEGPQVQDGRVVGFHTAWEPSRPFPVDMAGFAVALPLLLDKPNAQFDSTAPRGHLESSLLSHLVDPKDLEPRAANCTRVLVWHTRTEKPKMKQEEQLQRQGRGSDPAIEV
UniProt P27449, whole entry, looked up: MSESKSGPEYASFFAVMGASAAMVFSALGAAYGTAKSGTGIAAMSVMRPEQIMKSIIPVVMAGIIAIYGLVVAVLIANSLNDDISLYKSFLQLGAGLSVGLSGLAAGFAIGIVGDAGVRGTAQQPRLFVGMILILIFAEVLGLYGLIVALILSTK
UniProt Q9UI12, whole entry, looked up: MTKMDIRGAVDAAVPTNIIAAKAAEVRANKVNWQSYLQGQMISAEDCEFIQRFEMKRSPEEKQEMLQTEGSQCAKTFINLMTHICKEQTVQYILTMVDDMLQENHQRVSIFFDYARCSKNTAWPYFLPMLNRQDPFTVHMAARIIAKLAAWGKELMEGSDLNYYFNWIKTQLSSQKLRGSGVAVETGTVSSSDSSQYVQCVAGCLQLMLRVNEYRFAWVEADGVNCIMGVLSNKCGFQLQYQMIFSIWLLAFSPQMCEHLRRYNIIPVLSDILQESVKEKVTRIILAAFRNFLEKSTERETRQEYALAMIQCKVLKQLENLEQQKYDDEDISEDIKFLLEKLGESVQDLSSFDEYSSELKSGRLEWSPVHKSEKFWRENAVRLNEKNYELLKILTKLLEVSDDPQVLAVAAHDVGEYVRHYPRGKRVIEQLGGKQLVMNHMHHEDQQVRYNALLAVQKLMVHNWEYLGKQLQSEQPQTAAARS
UniProt P00966: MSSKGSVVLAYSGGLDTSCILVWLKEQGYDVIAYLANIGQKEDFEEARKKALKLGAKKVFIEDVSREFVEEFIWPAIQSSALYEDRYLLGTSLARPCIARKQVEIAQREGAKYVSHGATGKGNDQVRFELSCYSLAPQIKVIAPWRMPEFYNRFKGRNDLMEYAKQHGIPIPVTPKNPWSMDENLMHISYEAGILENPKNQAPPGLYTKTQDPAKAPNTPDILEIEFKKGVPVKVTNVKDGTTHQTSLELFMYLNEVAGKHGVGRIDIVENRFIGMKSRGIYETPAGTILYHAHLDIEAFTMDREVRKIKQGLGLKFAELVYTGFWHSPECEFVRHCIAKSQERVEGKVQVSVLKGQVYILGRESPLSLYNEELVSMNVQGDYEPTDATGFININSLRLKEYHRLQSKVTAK
UniProt O95260: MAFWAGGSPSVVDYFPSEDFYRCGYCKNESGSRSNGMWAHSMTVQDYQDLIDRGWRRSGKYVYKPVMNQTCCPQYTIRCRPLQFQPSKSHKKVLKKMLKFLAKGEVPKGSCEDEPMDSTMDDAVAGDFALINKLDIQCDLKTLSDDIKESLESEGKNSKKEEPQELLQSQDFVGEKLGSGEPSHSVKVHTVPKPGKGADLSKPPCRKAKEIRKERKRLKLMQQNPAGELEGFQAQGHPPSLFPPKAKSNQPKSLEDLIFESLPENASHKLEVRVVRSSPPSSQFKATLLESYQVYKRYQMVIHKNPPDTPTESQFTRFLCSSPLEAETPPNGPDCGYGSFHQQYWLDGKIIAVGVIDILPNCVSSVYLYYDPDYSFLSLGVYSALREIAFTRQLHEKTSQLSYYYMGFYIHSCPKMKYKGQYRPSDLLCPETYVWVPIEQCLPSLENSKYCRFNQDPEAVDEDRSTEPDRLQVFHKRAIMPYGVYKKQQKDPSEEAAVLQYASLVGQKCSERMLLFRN
UniProt Q96L58: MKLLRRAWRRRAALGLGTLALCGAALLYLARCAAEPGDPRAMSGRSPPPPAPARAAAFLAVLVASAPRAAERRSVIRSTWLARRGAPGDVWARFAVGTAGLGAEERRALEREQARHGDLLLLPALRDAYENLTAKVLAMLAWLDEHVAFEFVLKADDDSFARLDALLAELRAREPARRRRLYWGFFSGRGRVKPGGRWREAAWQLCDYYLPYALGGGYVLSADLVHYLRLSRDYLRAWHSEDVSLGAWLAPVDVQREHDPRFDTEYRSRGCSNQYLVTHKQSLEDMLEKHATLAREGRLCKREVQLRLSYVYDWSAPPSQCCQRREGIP
UniProt Q96QE3: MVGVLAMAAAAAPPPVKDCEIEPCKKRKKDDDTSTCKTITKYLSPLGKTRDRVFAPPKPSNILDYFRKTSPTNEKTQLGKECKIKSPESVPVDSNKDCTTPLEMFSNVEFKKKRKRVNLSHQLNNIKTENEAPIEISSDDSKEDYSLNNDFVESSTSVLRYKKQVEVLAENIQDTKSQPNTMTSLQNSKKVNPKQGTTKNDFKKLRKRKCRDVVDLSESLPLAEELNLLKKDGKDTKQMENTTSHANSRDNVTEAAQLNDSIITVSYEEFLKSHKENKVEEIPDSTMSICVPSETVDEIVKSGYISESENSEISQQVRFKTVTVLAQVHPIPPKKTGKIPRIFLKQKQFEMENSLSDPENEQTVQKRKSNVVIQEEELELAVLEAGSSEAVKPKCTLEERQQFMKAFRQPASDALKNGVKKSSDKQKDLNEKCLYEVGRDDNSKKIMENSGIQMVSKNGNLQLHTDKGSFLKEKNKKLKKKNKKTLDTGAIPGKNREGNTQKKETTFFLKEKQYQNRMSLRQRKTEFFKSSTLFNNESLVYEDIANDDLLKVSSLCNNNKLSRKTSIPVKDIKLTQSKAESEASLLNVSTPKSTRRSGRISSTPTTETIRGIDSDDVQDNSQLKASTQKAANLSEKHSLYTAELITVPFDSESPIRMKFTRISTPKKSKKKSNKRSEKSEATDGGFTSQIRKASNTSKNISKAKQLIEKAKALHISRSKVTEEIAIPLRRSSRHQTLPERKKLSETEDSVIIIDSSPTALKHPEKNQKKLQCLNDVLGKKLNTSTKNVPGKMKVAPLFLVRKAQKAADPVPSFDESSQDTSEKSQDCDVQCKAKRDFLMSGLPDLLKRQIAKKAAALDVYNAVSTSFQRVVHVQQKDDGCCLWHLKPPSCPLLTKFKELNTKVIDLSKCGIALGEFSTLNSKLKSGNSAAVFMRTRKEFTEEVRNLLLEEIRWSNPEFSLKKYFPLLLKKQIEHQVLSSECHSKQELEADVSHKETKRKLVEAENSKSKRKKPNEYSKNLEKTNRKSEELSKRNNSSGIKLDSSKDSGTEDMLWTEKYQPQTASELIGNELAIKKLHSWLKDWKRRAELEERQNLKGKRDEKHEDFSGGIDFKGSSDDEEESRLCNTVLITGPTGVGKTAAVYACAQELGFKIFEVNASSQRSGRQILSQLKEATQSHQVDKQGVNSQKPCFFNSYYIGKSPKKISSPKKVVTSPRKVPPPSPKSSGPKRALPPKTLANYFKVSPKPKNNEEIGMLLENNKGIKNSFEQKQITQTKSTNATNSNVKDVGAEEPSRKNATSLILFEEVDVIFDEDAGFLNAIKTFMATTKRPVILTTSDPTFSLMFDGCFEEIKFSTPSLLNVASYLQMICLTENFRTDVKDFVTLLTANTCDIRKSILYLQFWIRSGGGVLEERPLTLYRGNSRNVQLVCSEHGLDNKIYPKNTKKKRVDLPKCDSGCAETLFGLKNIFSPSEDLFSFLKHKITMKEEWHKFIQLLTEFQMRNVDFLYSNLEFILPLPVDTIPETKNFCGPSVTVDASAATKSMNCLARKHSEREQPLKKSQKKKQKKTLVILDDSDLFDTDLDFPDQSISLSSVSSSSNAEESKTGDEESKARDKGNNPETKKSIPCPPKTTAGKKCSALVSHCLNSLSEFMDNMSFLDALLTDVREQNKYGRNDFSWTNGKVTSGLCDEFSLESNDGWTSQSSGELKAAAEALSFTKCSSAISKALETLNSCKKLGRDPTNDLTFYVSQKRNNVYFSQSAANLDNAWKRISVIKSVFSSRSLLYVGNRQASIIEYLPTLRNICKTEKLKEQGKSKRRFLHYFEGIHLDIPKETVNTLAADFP
UniProt B2RBV5: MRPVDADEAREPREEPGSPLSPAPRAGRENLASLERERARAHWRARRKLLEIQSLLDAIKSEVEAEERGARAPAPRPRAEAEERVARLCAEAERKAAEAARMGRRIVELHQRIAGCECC
UniProt Q9UN42: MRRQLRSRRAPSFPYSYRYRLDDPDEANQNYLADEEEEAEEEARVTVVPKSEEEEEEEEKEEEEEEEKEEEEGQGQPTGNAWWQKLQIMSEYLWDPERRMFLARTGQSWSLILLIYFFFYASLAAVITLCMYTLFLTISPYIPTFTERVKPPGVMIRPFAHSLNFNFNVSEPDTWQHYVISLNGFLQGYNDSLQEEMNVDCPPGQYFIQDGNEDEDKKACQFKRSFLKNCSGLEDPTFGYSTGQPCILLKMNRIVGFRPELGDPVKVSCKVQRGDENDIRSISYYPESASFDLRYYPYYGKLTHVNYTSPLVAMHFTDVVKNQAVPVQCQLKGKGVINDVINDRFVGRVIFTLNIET

Tests used:
Test in all cases: log2 fold change, soluble protein after heating vs DMSO (PISA); higher = thermal stabilisation; K562 lysate, 10 uM; active = over 0.2 and 3.5 SD of the protein, either way, in both replicates (recomputed)
[1] = compound: NCC(=O)Nc1ccc(-n2nc(C(F)(F)F)cc2-c2ccc3c(ccc4ccccc43)c2)cc1
In short: (§1)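 Values give the log-two fold change in thermal stability against solvent controls, from duplicates. Crude K562 extract at 1 mg/mL protein, made by dounce homogenisation in PBS pH 7.4 with 1 mM MgCl2, was treated with 10 μM compound for 30 min. After 3 min heating across 48°C-58°C, aliquots were pooled, adjusted to 0.5% NP-40 at 4°C and centrifuged at 21,000xg for 90 min. The supernatant was measured by TMTpro 16plex LC-MS/MS with channel sums equalised.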

vorinostat = compound: O=C(CCCCCCC(=O)Nc1ccccc1)NO [vorinostat]
In short: as §1

silmitasertib = compound: O=C(O)c1ccc2c(c1)nc(Nc1cccc(Cl)c1)c1ccncc12 [silmitasertib]
In short: as §1

[2] = compound: O=C1NC(=O)C(c2cnc3ccccn23)=C1c1cn2c3c(cc(F)cc13)CN(C(=O)N1CCCCC1)CC2
In short: as §1

entospletinib = compound: c1cn2cc(-c3ccc4cn[nH]c4c3)nc(Nc3ccc(N4CCOCC4)cc3)c2n1 [entospletinib]
In short: as §1

Measured: log2 fold change

ATG2B (UniProt Q96BY7)
inactive: [1] 0.016 | vorinostat 0.032 | silmitasertib 0.009 | [2] 0.022 | entospletinib 0.008

ATP13A1 (UniProt Q9HD20)
inactive: [1] -0.009 | vorinostat -0.094 | silmitasertib 0.03 | [2] -0.02 | entospletinib -0.03

ATL3 (UniProt Q6DD88)
inactive: [1] 0.018 | vorinostat -0.123 | silmitasertib -0.027 | [2] -0.03 | entospletinib 0.016

ATP7B (UniProt P35670)
inactive: [1] 0.023 | vorinostat -0.132 | silmitasertib 0.026 | [2] 0.086 | entospletinib 0.026

ATP5MD (UniProt Q96IX5)
inactive: [1] -0.164 | vorinostat -0.103 | silmitasertib 0.098 | [2] 0.069 | entospletinib 0.06

B3GAT3 (UniProt O94766)
inactive: [1] 0 | vorinostat 0.023 | silmitasertib 0.047 | [2] 0 | entospletinib 0.056

ATP6V1B1 (UniProt P15313)
inactive: [1] -0.005 | vorinostat 0.083 | silmitasertib -0.013 | [2] -0.006 | entospletinib 0.014

ATG13 isoform 2 (UniProt O75143)
inactive: [1] 0.01 | vorinostat 0.051 | silmitasertib -0.01 | [2] 0.024 | entospletinib -0.008

ATP6V0C (UniProt P27449)
inactive: [1] 0.021 | vorinostat 0.179 | silmitasertib 0.051 | [2] 0.079 | entospletinib 0.082

B3GNT5 (UniProt Q9BYG0)
inactive: [1] -0.062 | vorinostat 0.231 | silmitasertib 0.077 | entospletinib -0.068

ATP6V1B2 (UniProt P21281)
inactive: [1] 0.002 | vorinostat 0.127 | silmitasertib -0.018 | [2] 0.014 | entospletinib 0.032

ATP6V1H (UniProt Q9UI12)
inactive: [1] 0.034 | vorinostat -0.131 | silmitasertib 0.031 | [2] -0.018 | entospletinib 0.02

ATP5F1B (UniProt F8W079)
inactive: entospletinib 0

ATP5F1C isoform 2 (UniProt P36542)
inactive: [2] 0.07

ASS1 (UniProt P00966)
inactive: vorinostat -0.193 | silmitasertib 0.034 | [2] 0.035 | entospletinib -0.058

ATF1 (UniProt P18846)
inactive: vorinostat 0.076 | silmitasertib 0.023 | [2] -0.085 | entospletinib -0.141

B3GALNT2 (UniProt Q8NCR0)
inactive: [2] -0.337

ATE1 (UniProt O95260)
inactive: [2] 0.028

ATXN1L (UniProt P0C7T5)
inactive: [1] 0.061 | [2] 0.022 | entospletinib -0.059

ATP5F1A (UniProt K7ENJ4)
inactive: vorinostat -0.43 | silmitasertib -0.037

ASB16 (UniProt Q96NS5)
inactive: [2] 0.314

ASXL1 (UniProt Q8IXJ9)
inactive: vorinostat 0.03 | silmitasertib 0.001 | [2] 0.002 | entospletinib -0.014

B3GALT6 (UniProt Q96L58)
inactive: vorinostat 0.218 | silmitasertib -0.029 | [2] 0.071

ASB9 (UniProt Q96DX5)
inactive: vorinostat 0.103 | silmitasertib -0.16

ASXL2 (UniProt Q76L83)
inactive: vorinostat -0.104 | silmitasertib -0.016 | [2] 0.057

ATAD5 (UniProt Q96QE3)
inactive: vorinostat -0.048 | silmitasertib 0.072 | entospletinib -0.088

ASXL3 (UniProt Q9C0F0)
inactive: vorinostat -0.129 | silmitasertib 0.058 | [2] 0.024

Reprinted at random: 2 records from the list.
ATAD5 (UniProt Q96QE3)
inactive: vorinostat -0.048 | silmitasertib 0.072 | entospletinib -0.088

ASXL3 (UniProt Q9C0F0)
inactive: vorinostat -0.129 | silmitasertib 0.058 | [2] 0.024

Later entries:

NA (UniProt B2RBV5)
inactive: vorinostat -0.01 | silmitasertib -0.056 | [2] -0.266 | entospletinib -0.092

ATP1B4 (UniProt Q9UN42)
inactive: [2] -0.064

ATG2A (UniProt Q2TAZ0)
inactive: vorinostat -0.034 | silmitasertib -0.324

ATP1B1 (UniProt P05026)
inactive: vorinostat 0.21 | silmitasertib 0.025 | [2] 0.004

ATP6V0A1 (UniProt Q93050)
inactive: vorinostat 0.081 | silmitasertib 0.113 | [2] 0.07

ASNSD1 (UniProt Q9NWL6)
inactive: vorinostat -0.453 | silmitasertib -0.057 | entospletinib -0.067
